Data reported in US9757451B2, “Use of RANK/RANKL antagonists for treating muscular dystrophy” (UNIVERSITÉ LAVAL, priority 2011, dated 2017).
For at least one compound, name, drawing or mass did not settle the structure.

Test system: C2C12 myotubes
Experiment: Dexamethasone-induced myotube atrophy (myotube diameter) in vitro
Assay type: cell-based, mouse
Description: FIG. 9. […] Myotubes were incubated with DEX (1,000 nM) and/or OPG at 10 ng/mL or 100 ng/mL. OPG used and tested in vivo and in vitro was bought from R&D systems (Catalog number:459-MO).
To further investigate how RANK/RANKL influences muscle function, the present inventor(s) have assessed the effect of DEX on C2C12 myoblasts grown in DMEM containing 10% FBS and 1% antibiotic-antimycotic in 96-well plates at a density of 3,000 myoblasts/well. The present inventor(s) used this mouse myoblast cell line because the present inventor(s) are very familiar with it and because it easily differentiates into myotubes and responds to RANKL stimulation. Confluent myoblasts on coverslips (approximately 300,000/well) were incubated in DMEM containing 2% horse serum for five days to allow them to differentiate into myotubes. The myotubes were then exposed to […]. This concentration was sufficient to induce a 15-20% decrease in myotube diameter relative to control myotubes after 48 h. Myotubes in other wells were treated or not with 1 mM DEX combined with 100 ng/ml of OPG. In the experiment proposed herein, myotube atrophy were determined by measuring the diameters of the myotubes at 100× magnification using a light microscope (Nikon). Three different sites in each well were blindly identified and observed throughout the experiment. The average were considered as a single value. Myotube diameters were quantified using the ImageJ digital imaging system (NIH). The diameters of 150 to 200 myotubes per well were measured after 24 and 48 h. Measurements were performed in triplicate for all the experimental conditions to enable statistical comparisons between groups.

C[C@@H]1C[C@H]2[C@@H]3CCC4=CC(=O)C=C[C@]4(C)[C@@]3(F)[C@@H](O)C[C@]2(C)[C@@]1(O)C(=O)CO [DEX, dexamethasone, reference compound]
MyHC isoform expression in myotubes (1 mM DEX, preliminary results): favoured the expression of MyHC type I and IIa
myotube atrophy (1 mM DEX, preliminary results): induced myotube atrophy
myotube diameter (myotube atrophy) (DEX 1,000 nM, 24 and 48 h of incubation): significant diminution in myotube diameter
